PubChem BioAssay AID445 (National Center for Advancing Translational Sciences (NCATS), 2006)
The list shows a part of the results. These are further read-outs of the screen, such as a control signal, another cell line or another target. No call is given for them. Most of these compounds were active or inconclusive in the main read-out, so they are no random draw. Words in brackets tell the shape of the fitted curve; partial curves, single points and poor fits give uncertain potencies.

Assay: IkB Signaling
Details: ABC-DLBCL IkBa-CBG/CBR dual luciferase ratio (green luciferase fused to IkBa over red control in OCI-Ly3 lymphoma cells), 4 h; measured here: control luc red channel unless noted
Method in brief: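 In this assay, an IκBα–CBG68 fusion accumulates when IKK-driven degradation is blocked; native CBR normalizes for cell number. OCI-Ly3 cells were treated 4 h with compound and doxycycline, then green and red light read after Chroma-Glo addition.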

Structure (SMILES) | AC50
Cc1ccc(NC(=O)c2c(C)oc3ccc(O)c(CN4CCCCC4)c23)c(C)c1 | 7.94 µM [falling, partial curve]
Cc1ccc(-c2nnc(Nc3ccc(S(N)(=O)=O)cc3)c3ccccc23)cc1S(=O)(=O)N1CCCCC1 | 15.8 µM [falling, partial curve]
O=C(Nc1ccc(F)cc1F)c1cc(-c2ccco2)on1 | 5.01 µM [falling, full curve]
Cc1ccc(C)c(Cn2c(=O)cc(C)c3c(C)nn(C)c32)c1 | 25.1 µM [falling, partial curve]
CCn1c(C)c(C)c2cc(C(=O)NCc3cccc(C)c3)ccc21 | 25.1 µM [falling, single point]
O=C(c1ccccc1)N(Cc1ccco1)Cc1cccs1 | 31.6 µM [falling, single point]
COc1ccc(NC(=O)/C=C\C(=O)N(c2ccc(C(C)C)cc2)C(C(=O)NCc2ccco2)c2ccc(F)cc2)cc1 (stereo unspecified) | 31.6 µM [falling, partial curve]
COc1ccc(OCC(=O)N2CCN(C(=O)c3cccc(OC)c3)CC2)cc1 | 39.8 µM [falling, single point]
COc1ccccc1NC(=O)c1sc2nc(C)c(C(=O)Nc3ccc(C)cc3C)c(-c3ccc(C)o3)c2c1N | 3.98 µM [falling, partial curve]
Cc1ccc(-n2ncc3c(N4CCN(C)CC4)ncnc32)cc1C | 20 µM [falling, single point]
O=C(C1CCN(S(=O)(=O)c2cccc3cccnc23)CC1)N1CCN(c2ccc(Cl)cc2)CC1 | 12.6 µM [falling, partial curve]
Cc1cccc(N2CCN(c3nc4ccc(C)cc4n4cnnc34)CC2C)c1 (stereo unspecified) | 39.8 µM [falling, single point]
O=C(NC1CCCCC1)N1CCc2ccccc21 | 12.6 µM [falling, partial curve]
CCOc1ccccc1N(CC)C(=O)c1noc2c1COc1ccc(C)cc1-2 | 2.51 µM [falling, full curve, poor fit]
O=C(NC1CCCCC1)c1ccc2c(c1)N(Cc1ccc(Cl)cc1)C(=O)c1ccccc1S2=O (stereo unspecified) | 5.01 µM [falling, partial curve]
O=C(c1ccc(F)cc1)n1nc(-c2ccccc2)nc1NCc1ccco1 | 15.8 µM [falling, partial curve]
CCn1cc(C(=O)NCCc2ccc(Cl)cc2)c(=O)c2cc(S(=O)(=O)N3CCC(C)CC3)ccc21 | 10 µM [falling, partial curve]
Cc1ccc(NC(=O)c2oc3ccc(S(=O)(=O)N4CCC5(CC4)OCCO5)cc3c2C)c(C)c1 | 31.6 µM [falling, partial curve]
O=C(Nc1ccc(S(=O)(=O)N(Cc2ccccc2)c2ccccc2)cc1)c1ccc([N+](=O)[O-])cc1 | 15.8 µM [falling, single point]
O=c1c2ccccc2sc2nc(C3CCCCC3)n(Cc3ccco3)c(=O)c12 | 1 µM [falling, partial curve]
CC(C)CCNC(=O)Nc1cc(C(=O)NCc2cccc(F)c2)ccc1N1CCCC1 | 25.1 µM [falling, single point]

Structure (SMILES) | AC50
COc1ccc2c(c1)CC(C(=O)NCCN1CCN(c3cccc(C)c3C)CC1)CO2 (stereo unspecified) | 2.51 µM [falling, partial curve, poor fit]
CCOC(=O)c1ccc(CN(Cc2ccc(C)cc2)S(=O)(=O)c2ccc(NC(C)=O)cc2)cc1 | 39.8 µM [falling, single point]
CCn1cc2nc(SCc3ccc(F)cc3)n(Cc3ccc(Cl)cc3)c(=O)c2n1 | 12.6 µM [falling, partial curve]
CC(=O)Nc1ccc(Nc2nnc(-c3ccc(C)c(S(N)(=O)=O)c3)c3ccccc23)cc1 | 39.8 µM [falling, single point]
C=CCn1c(-c2ccccc2)c[nH]c1=S | 3.16 µM [falling, partial curve]
CC(C)Cn1cc(C(=O)N2CCN(c3cccc(Cl)c3)CC2)c2c3ccccc3n(C)c2c1=O | 10 µM [falling, partial curve]
CC(=O)N1CCCc2cc(S(=O)(=O)N3CCCC(C(=O)Nc4cccc(Cl)c4C)C3)ccc21 (stereo unspecified) | 0.1 µM [falling, full curve, poor fit]
Cc1ccc(C)c(OC(=O)CSc2nnc(-c3ccc4c(c3)OCO4)o2)c1 | 25.1 µM [falling, single point]
CCOc1cc(C(=O)Nc2ccc(S(=O)(=O)Nc3cc(OC)nc(OC)n3)cc2)cc(OCC)c1OCC | 2 µM [falling, partial curve]
COc1ccc(C/C(O)=C(\C#N)c2nc3ccccc3s2)cc1 | 25.1 µM [falling, partial curve]
CCC1=C(c2ccc(C)cc2)S(=O)(=O)N=C1N1CCC(C(=O)NCc2ccccc2Cl)CC1 | 12.6 µM [falling, partial curve]
CCCCCOC(=O)c1ccc(OC(=O)c2sc3ncn(Cc4cccc(F)c4)c(=O)c3c2C)cc1 | 2.51 µM [rising, partial curve]
CCCN(CCC)CCNC(=O)C1CCCN(S(=O)(=O)c2cccc3nsnc23)C1 (stereo unspecified) | 0.794 µM [rising, full curve, poor fit]
Cc1ccc(C)c(N2CCN(CCCNC(=O)c3nnc(Cc4ccc(F)cc4Cl)o3)CC2)c1 | 25.1 µM [falling, partial curve]
Cc1cccc(C#Cc2ccccc2)n1 | 0.631 µM [rising, full curve, poor fit]
CCc1ccc(NC(=O)Cn2c(=O)n(CC3CCCO3)c(=O)c3cc(OC)c(OC)cc32)cc1 (stereo unspecified) | 15.8 µM [falling, partial curve, poor fit]
Cc1ccc(-c2cc(C(F)(F)F)c(C#N)c(SCC(=O)O)n2)cc1 | 1.58 µM [falling, partial curve]
COc1ccc(-c2nc(NC(=O)C3CCN(c4nc5ccccc5o4)CC3)sc2C)cc1 | 12.6 µM [falling, partial curve]
O=C(CN1C(=O)C2CCCCN2c2ccc(C(=O)N3CCCC3)cc21)NCc1cccc(F)c1 (stereo unspecified) | 39.8 µM [falling, single point]
COc1ccc(OC)c(C2C(C#N)=C(N)Oc3c2c(C)nn3-c2ccc(C)cc2)c1 (stereo unspecified) | 3.16 µM [falling, full curve] [measured here: IkB-luc green channel]
Cc1ccccc1CNC(=O)C(=O)NCC(c1cccs1)S(=O)(=O)c1ccc(Cl)cc1 (stereo unspecified) | 15.8 µM [falling, single point]

Nothing new here: 4 of the compounds above.
Structure (SMILES) | AC50
COc1ccc(OCC(=O)N2CCN(C(=O)c3cccc(OC)c3)CC2)cc1 | 39.8 µM [falling, single point]
COc1ccccc1NC(=O)c1sc2nc(C)c(C(=O)Nc3ccc(C)cc3C)c(-c3ccc(C)o3)c2c1N | 3.98 µM [falling, partial curve]
Cc1ccc(-n2ncc3c(N4CCN(C)CC4)ncnc32)cc1C | 20 µM [falling, single point]
O=C(C1CCN(S(=O)(=O)c2cccc3cccnc23)CC1)N1CCN(c2ccc(Cl)cc2)CC1 | 12.6 µM [falling, partial curve]

(cont.)

Structure (SMILES) | AC50
O=C(NCc1ccccc1)c1ccc2c(c1)nc1n2CCCCC1 | 15.8 µM [falling, single point]
CCn1ccc(C(=O)Nc2ccc(S(=O)(=O)Nc3ccccc3OC)cc2)n1 | 20 µM [falling, partial curve]
COc1cc2c(cc1OC)CN(C(=O)CC1CC3CCC1C3)CC2 (stereo unspecified) | 7.94 µM [falling, full curve]
Cc1c(Cl)cccc1-n1ncc(C(=O)Nc2ccc(F)cc2F)c1C1CCN(C(=O)OC(C)(C)C)CC1 | 15.8 µM [falling, partial curve]
COC(=O)C1CCN(C(c2ccccc2)c2sc3nc(-c4ccco4)nn3c2O)CC1 (stereo unspecified) | 15.8 µM [rising, partial curve]
CCN(CC)c1ccc(NC(=O)CN2C(=O)c3cccnc3Sc3ccccc32)c(C)c1 | 15.8 µM [falling, partial curve]
CC(=O)N1CCc2c(sc3c2c(=O)n(CCc2ccccc2)c(=O)n3Cc2cccc(C)c2)C1 | 6.31 µM [falling, single point]
Nc1[nH]nc2nc(N3CCOCC3)nc(-c3ccccc3)c12 | 39.8 µM [falling, single point]
COc1ccc2oc(-c3ccc(C)c(NC(=O)CSc4ccc(Cl)cc4)c3)nc2c1 | 7.94 µM [falling, full curve]
CC(=O)N1c2ccc(S(=O)(=O)N3CCN(c4cccc(Cl)c4)CC3)cc2CC1C (stereo unspecified) | 0.2 µM [falling, full curve, poor fit]
COc1cccc(NC(=O)Cn2c(=O)n(CC(=O)NCCc3ccccc3)c(=O)c3sccc32)c1 | 31.6 µM [falling, single point]
Cc1ccc2nc(-c3ccco3)c(Nc3ccc4c(c3)OCCO4)n2c1 | 20 µM [falling, partial curve]
CCn1c(SCC(N)=O)nc2c(c1=O)C1(CCCC1)Cc1ccccc1-2 | 25.1 µM [falling, single point]
CCc1c(C)nc2nc(-c3ccccc3)nn2c1NCc1ccc(C)cc1 | 12.6 µM [falling, partial curve]
COc1cccc2[nH]c(C(=O)NCc3ccc4c(c3)CCN4C(=O)c3ccc(F)cc3)cc12 | 3.16 µM [falling, partial curve, poor fit]
CN(C)c1ccc(/C=N/n2ncc3ccccc32)cc1 | 3.16 µM [falling, partial curve]
CCC(C)(C)n1nnnc1C(c1cccs1)N1CCN(c2nc3ccccc3s2)CC1 (stereo unspecified) | 12.6 µM [falling, partial curve]
Clc1ccccc1-c1nnc2sc(C3COc4ccccc4O3)nn12 (stereo unspecified) | 20 µM [falling, single point]
COc1ccc(CNC(=O)c2ccc(-c3nc(CS(=O)c4ccc(C)cc4)c(C)o3)cc2)cc1 (stereo unspecified) | 10 µM [falling, single point]
